Laboratory results as given in patent publication US20250042956A1.
These are yes or no findings as the source states them, for the method shown. For some of these results: In cells and extracts the contact can be indirect. Some results given as binding are weak or reduced against the parent protein; the word gives no strength. Tags and fused reporters may be left off the sequences shown. Blank lines part the entries; values can stand above or below the binder they belong to.

By UniProt entry, the sequences of proteins in these tests, tags left out.
UniProt Q9M658: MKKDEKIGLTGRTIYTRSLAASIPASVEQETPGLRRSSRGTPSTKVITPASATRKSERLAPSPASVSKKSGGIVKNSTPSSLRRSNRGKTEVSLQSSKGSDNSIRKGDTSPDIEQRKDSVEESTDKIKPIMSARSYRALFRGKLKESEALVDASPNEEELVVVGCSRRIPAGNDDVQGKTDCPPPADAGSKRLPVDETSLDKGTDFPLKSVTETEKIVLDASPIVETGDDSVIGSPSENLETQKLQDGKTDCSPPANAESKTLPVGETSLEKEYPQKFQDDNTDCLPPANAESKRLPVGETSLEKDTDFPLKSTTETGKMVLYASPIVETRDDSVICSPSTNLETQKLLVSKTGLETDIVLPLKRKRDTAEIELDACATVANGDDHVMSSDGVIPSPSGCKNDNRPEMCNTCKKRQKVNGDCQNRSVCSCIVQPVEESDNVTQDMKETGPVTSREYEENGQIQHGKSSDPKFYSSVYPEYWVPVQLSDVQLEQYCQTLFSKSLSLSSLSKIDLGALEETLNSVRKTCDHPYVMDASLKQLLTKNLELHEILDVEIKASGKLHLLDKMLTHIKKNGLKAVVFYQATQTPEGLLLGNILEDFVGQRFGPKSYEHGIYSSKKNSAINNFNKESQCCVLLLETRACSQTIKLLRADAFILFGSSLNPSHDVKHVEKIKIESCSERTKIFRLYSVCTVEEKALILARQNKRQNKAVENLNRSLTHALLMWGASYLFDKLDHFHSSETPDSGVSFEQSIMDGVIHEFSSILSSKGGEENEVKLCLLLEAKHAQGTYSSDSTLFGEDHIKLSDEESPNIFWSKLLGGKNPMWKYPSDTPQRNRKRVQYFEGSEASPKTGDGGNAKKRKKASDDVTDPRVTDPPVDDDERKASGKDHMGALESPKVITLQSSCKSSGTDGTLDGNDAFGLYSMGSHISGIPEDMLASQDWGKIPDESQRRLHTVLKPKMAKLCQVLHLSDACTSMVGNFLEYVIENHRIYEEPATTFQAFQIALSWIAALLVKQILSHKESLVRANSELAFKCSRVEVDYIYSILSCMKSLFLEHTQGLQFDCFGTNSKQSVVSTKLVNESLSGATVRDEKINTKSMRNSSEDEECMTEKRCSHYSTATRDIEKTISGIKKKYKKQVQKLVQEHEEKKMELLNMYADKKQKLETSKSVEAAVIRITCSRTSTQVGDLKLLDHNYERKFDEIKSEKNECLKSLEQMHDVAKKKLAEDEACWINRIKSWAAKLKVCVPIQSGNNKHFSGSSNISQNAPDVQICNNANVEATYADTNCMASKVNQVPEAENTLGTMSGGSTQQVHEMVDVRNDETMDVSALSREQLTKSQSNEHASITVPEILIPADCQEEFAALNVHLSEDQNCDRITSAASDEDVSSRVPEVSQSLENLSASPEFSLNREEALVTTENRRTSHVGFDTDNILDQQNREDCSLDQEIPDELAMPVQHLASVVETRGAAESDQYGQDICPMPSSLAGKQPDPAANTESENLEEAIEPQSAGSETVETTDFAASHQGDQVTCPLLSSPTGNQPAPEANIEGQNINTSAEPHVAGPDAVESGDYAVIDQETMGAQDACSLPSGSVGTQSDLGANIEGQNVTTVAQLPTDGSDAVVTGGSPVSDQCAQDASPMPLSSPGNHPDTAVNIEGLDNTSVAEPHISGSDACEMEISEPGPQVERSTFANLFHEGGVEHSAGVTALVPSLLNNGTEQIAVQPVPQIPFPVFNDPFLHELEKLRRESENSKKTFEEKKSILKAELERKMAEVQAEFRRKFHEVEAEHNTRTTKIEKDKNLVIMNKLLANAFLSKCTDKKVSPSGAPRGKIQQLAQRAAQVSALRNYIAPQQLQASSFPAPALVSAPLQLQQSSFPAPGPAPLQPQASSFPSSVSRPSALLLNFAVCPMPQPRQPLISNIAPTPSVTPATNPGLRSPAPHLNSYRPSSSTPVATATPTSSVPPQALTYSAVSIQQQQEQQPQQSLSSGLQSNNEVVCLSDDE

Columns and labels:
[1] = target: MORPHEUS MOLECULE 1 (MOM1) (Arabidopsis thaliana) (UniProt Q9M658); assay: IP-MS, pPHD1:PHD1-FLAG line
[2] = target: T1, PIAL2 (Arabidopsis thaliana) (UniProt F4JYG0); assay: IP-MS, pPHD1:PHD1-FLAG line
T1 sequence: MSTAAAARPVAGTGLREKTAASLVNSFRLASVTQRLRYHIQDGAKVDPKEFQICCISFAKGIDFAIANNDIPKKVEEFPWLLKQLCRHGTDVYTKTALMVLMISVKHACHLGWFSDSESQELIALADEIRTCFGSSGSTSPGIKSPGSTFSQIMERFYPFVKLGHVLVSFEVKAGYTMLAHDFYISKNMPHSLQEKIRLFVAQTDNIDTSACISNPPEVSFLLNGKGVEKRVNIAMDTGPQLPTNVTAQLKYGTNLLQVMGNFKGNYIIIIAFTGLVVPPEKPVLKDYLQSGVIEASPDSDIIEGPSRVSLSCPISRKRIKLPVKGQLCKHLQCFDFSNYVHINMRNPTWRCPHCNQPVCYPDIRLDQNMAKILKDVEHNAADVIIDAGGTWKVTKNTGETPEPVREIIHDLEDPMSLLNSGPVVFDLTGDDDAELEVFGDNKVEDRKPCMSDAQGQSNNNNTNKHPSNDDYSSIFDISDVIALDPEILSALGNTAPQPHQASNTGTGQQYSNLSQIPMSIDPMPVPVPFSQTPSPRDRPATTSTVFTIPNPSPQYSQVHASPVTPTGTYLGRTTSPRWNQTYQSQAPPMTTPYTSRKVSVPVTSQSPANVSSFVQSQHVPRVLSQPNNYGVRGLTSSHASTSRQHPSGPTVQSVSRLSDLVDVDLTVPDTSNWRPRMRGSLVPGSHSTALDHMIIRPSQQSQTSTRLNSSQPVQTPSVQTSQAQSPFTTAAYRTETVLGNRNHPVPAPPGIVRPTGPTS

[3] = target: Myc-JMJ14 (Arabidopsis thaliana), Q8GUI6; assay: co-IP of FIG. 22A; conditions: remark: other sources report otherwise
[4] = target: AT4G20400.1 JMJ14 (Arabidopsis thaliana), Q8GUI6; assay: IP-MS, pTRB:TRB-FLAG lines; conditions: remark: other sources report otherwise
[5] = target: Myc-JMJ14 (Arabidopsis thaliana), Q8GUI6; assay: co-IP (FLAG-IP, anti-Myc Western), F2 crossed lines; conditions: remark: other sources report otherwise
[6] = target: T2, AT1G49950.3 TRB1 (Arabidopsis thaliana), Q8VWK4; assay: IP-MS; conditions: remark: other sources report otherwise
T2 chain: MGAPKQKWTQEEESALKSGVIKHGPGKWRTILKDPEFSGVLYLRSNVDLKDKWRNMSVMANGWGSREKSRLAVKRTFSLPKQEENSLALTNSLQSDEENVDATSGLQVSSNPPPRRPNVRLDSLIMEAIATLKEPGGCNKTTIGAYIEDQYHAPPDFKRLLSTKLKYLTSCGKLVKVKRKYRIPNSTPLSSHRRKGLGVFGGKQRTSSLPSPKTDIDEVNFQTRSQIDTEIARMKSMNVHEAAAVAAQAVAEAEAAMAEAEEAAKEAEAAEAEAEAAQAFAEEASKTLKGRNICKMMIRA

[7] = target: T3, TRB1-Myc (Arabidopsis thaliana), Q8VWK4; assay: co-IP, anti-FLAG, crossed lines; conditions: remark: other sources report otherwise
T3 chain: T2 chain

[8] = target: T4, HD2B (Arabidopsis thaliana) (UniProt Q56WH4); assay: IP-MS, pHD2A:HD2A-FLAG line
T4 sequence: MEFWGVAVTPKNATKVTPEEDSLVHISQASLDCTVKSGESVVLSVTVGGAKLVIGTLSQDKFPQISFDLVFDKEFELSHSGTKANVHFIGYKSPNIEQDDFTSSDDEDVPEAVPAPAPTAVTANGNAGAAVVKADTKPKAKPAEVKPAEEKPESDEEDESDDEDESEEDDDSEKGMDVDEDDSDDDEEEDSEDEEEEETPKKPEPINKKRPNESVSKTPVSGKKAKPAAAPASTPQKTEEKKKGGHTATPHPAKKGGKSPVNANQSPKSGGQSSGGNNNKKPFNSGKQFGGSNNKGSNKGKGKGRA

[9] = target: T5, HD2C (Arabidopsis thaliana) (UniProt Q9LZR5); assay: IP-MS, pHD2A:HD2A-FLAG line
T5 sequence: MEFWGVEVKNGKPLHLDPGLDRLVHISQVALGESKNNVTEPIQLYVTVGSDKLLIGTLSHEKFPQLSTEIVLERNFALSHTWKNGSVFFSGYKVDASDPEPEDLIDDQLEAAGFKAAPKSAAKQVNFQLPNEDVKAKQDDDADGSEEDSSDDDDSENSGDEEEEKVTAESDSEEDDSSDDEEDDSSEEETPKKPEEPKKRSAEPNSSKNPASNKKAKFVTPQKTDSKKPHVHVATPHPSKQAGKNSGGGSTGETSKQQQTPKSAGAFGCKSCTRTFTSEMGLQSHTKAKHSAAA

[10] = target: T6, HD2D (Arabidopsis thaliana) (UniProt Q9M4T3); assay: IP-MS, pHD2A:HD2A-FLAG line
T6 sequence (looked up): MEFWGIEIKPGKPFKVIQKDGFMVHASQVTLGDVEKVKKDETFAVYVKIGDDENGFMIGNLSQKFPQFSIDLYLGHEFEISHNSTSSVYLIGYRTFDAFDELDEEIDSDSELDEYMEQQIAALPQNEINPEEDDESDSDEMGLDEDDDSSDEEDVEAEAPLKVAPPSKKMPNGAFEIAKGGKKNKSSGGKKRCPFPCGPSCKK

[11] = target: T7, AT2G17540.2 TRBIP2 (Arabidopsis thaliana); assay: IP-MS
T7 sequence: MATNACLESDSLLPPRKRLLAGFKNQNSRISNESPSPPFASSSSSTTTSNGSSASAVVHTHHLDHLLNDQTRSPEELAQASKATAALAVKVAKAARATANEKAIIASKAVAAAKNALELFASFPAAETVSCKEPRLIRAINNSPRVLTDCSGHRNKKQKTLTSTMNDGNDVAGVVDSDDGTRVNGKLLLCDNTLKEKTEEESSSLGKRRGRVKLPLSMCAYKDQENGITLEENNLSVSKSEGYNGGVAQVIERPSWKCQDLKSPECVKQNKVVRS

[12] = target: T8, AT4G35510.1 TRBIP1 (Arabidopsis thaliana); assay: IP-MS
T8 sequence: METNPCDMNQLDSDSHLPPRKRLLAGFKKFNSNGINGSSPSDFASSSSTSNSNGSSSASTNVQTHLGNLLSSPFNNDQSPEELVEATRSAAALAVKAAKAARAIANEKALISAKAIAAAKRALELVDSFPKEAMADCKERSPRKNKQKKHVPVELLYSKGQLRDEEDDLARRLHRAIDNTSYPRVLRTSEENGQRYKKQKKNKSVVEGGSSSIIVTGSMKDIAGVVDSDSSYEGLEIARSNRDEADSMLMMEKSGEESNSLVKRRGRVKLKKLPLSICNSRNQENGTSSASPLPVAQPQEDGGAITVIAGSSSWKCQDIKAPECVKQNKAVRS

binding [3]: binds
binding [4]: binds
binding [5]: binds
B2: FLAG-TRB1, Q8VWK4 1-300 (protein, not shown: small tags and cut ends)
chain: T2 chain

binding [8]: binds
binding [9]: binds
binding [10]: binds
B5: HD2A-FLAG (enzyme, not shown: small tags and cut ends)
chain: MEFWGIEVKSGKPVTVTPEEGILIHVSQASLGECKNKKGEFVPLHVKVGNQNLVLGTLSTENIPQLFCDLVFDKEFELSHTWGKGSVYFVGYKTPNIEPQGYSEEEEEEEEEVPAGNAAKAVAKPKAKPAEVKPAVDDEEDESDSDGMDEDDSDGEDSEEEEPTPKKPASSKKRANETTPKAPVSAKKAKVAVTPQKTDEKKKGGKAANQSPKSASQVSCGSCKKTFNSGNALESHNKAKHAAAK

binding [11]: binds
binding [12]: binds
B6: FLAG-TRB1 (protein, not shown: small tags and cut ends)
chain: T2 chain

The next lines start with the binder.

B1: PHD1-FLAG (protein, not shown: small tags and cut ends)
chain: MSLHVKGPVCQTCGDIGFEEALVFCDSCMFESIHRYCLGITPIPFTEYITWICEDCDNSESDSDCNEVDQTVKKKKKSRNQPLVVLAEDNVLQEPLEGSKREESSCSRKPHELTCLDGNGESVLEAADSSSVPDHSSCTSKRKEVDQTANLGHILERSEKKKKKKKKKKSINHSPPVLAVEDHELQGTTNVVEPVEVSSSSPTKETMESKRQESSDSRKPHELTCLVGDSETANSSSVPEHNSCAVKKRKLSSGNKQIQLADGSSSCRVAESNMPLTLTSRNYRAQPIKIPIWRGLMSVKGGNSCTMDGIVAHVSSLACPKVHETASSLKGRLSAEILPRLEVWPKTFLKNGGPKDESVALFFFPSSESNDEKVFDSLVDKMKKNDSAMRCVLNDAELLLFTSYMLPKDSWTFNSKYYLWGVFKPRQTSRY
binding [1]: binds
binding [2]: binds

B3: FLAG-TRB3, Q9M2X3 1-295 (protein, not shown: small tags and cut ends)
chain: MGAPKLKWTPEEETALKAGVLKHGTGKWRTILSDPVYSTILKSRSNVDLKDKWRNISVTALWGSRKKAKLALKRTPLSGSRQDDNATAITIVSLANGDVGGQQIDAPSPPAGSCEPPRPSTSVDKIILEAITSLKRPFGPDGKSILMYIEENFKMQPDMKRLVTSRLKYLTNVGTLVKKKHKYRISQNYMAEGEGQRSPQLLLEGNKENTPKPEENGVKNLTKSQVGGEVMIMGMTEKEAAAAAARAVAEAEFAMAEAEEAAREADKAEAEAEAAHIFAKAAMKAVKYRMHSQTR
binding [3]: binds
binding [4]: binds
binding [5]: binds

B4: JMJ14-FLAG, Q8GUI6 1-954 (enzyme, Arabidopsis thaliana, UniProt Q8GUI6 1-954, looked up, not shown: small tags and cut ends)
chain: MDQLASLAESVAMEEDSEKQSIKGESSLEPDSTPSSPKITARWNPSEACRPLVDDAPIFYPTNEDFDDPLGYIEKLRSKAESYGICRIVPPVAWRPPCPLKEKKIWENSKFPTRIQFIDLLQNREPIKKSTKTKKRKRRRISKIGYTRRKRDSGCDTASSGSSDSEGKFGFQTGPDFTLEEFQKYDEYFKECYFQSEDHPGSKASENKKFKPKVKDLEGEYWRIVEQATDEVEVYYGADLETKKFGSGFPKYKPGYPISEADQYSQCGWNLNNLSRLPGSVLAFESCDISGVIVPWLYVGMCFSTFCWHVEDHHLYSMNYLHTGDPKVWYGIPGNHAESFENVMKKRLPDLFEEQPDLLHQLVTQLSPRILKEEGVPVYRAVQRSGEFILTFPKAYHSGFNCGFNCAEAVNVAPVDWLVHGQNAVEGYSKQRRKSSLSHDKLLLGAAMEATYCLWELSLSKKKTPVIARWKRVCSEDGLLTKAVKKRVQMEEERLNHLQDGFSLRKMEGDFDNKRERECFLCFYDLHMSASSCKCSPNRFACLIHAKDLCSCESKDRYILIRHTLDELWALVRALEGDLDAIDLWASKCRDQYPSQHPRAREYAYLKSAPCIKSRGSSKVQQREQNNLQLVSERLQSDLTSNKEVQLKQDGDSDVNRHGHESERNHVHGITDKSAVTDVKLGVGGKFDEKKISVESQNPHSVSDVGCSELAKKVDGCLGGKDQNAATNRLSLSVELLSSGSLVVKKLWCSKQAIYPKGFKSRVKFLSVLDPTNLTNYISEVLDAGLLGPLFRVSVEDYPTENFSNVSAEKCWQMVTQRLKLEIIKKCDQPVSSLTSLQPLESINGLEMFGFLSPHVIKVVEALDPKHQLEEYWNQKAVKLFGAEPIKEGEKDDTEKGGASDPSLDRDTRLLRGLLKKATPEELVMMHGLLCGETRNTELKEELSTLVDKMEISP
binding [6]: binds
binding [7]: binds

B7: FLAG-TRB3 (protein, not shown: small tags and cut ends)
chain: B3 chain
binding [11]: binds
